Paper PMC10719321
These are yes or no findings as the source states them, for the method shown. Some binding calls cover weakened binding; strength is not graded here. Sequences can lack the tags named with a protein.

Chains of the proteins cited; added tags and fusions are not shown. Lines headed by an entry give the natural chain unless they say otherwise; changes in a name come on top.
UniProt P43406: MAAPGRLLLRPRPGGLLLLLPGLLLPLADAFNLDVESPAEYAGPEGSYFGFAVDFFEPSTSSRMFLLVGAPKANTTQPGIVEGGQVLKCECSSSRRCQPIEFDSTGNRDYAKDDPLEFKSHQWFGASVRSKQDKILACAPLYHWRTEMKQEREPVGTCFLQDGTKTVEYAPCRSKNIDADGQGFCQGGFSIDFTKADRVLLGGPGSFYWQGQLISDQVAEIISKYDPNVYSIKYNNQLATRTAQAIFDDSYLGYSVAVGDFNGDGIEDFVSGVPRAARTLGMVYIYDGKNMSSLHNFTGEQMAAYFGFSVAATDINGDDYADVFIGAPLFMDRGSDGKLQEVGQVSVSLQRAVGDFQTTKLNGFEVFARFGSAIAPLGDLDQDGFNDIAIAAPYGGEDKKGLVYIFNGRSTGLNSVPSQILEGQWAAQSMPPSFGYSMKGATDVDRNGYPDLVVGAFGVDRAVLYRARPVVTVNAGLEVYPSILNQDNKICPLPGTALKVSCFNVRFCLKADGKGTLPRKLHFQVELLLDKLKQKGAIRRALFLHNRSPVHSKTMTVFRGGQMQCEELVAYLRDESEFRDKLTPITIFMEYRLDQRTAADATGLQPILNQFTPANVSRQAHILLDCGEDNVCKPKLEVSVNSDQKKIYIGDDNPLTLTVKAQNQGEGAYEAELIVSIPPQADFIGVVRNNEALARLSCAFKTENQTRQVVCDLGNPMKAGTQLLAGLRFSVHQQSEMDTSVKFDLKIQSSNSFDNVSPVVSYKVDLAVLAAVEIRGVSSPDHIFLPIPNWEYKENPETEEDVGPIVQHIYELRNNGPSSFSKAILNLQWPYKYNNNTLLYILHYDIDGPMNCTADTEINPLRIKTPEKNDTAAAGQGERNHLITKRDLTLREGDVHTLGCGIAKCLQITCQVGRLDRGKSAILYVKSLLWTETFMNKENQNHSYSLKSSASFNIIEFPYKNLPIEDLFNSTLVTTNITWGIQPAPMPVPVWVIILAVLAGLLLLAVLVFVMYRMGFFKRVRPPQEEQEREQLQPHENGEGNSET

Target: T1, commercially available mammalian cell-expressed His-tagged recombinant human MFG-E8 (R&D Systems, cat: 2767-MF) (human) (UniProt Q08431)
T1 sequence: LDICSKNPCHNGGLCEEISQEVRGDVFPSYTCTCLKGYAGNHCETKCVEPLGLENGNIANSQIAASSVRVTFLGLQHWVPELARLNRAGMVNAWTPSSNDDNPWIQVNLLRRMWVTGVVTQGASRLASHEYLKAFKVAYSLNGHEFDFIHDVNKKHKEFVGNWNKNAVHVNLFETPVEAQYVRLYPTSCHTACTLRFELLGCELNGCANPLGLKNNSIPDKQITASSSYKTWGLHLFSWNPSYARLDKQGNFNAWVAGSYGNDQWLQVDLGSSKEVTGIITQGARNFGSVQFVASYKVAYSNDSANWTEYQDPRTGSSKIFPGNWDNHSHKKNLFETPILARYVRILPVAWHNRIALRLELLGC
Experiment: cell adhesion assay; wells pre-coated with different concentrations of rhMFG-E8; fluorescently labelled SVEC4-10 cells added; after washes the percentage of cells that remained bound to the plate read on a fluorescence plate reader; also done with lyophilised, stored (-20 °C, up to 2 years) and reconstituted tag-free protein; only the target purified

binding: binds
Substance: αVβ3 integrin on the surface of mouse vascular endothelial cells SVEC4-10 (from UniProt P43406 31-1044; O54890 26-787) (complex)
